For experiment [1], the target named is T1, hXkr8-T302C tagged with mGFP (human) (UniProt Q9H6D3).
T1 sequence: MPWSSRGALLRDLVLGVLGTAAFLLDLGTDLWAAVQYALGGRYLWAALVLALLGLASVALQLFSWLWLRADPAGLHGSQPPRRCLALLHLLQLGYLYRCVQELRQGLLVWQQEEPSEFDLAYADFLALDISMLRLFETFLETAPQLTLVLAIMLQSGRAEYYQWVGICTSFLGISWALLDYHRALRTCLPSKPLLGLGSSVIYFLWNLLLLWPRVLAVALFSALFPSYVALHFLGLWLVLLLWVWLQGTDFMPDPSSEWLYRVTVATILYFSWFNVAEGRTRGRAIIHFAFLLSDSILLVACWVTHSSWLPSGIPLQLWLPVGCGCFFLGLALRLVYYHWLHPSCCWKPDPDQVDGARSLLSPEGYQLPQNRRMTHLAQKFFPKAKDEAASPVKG
The experiment can be described thus: cross-linking; cysteine-substituted hXkr8-mGFP and hBSG-HA co-expressed in HEK293T; crude membrane fraction treated with copper phenanthroline (0.3 mM CuSO4, 0.9 mM 1,10-phenanthroline) at room temperature for 10 min; nonreducing SDS–PAGE, western blot for GFP and HA. (In western blotting, separated proteins are transferred to a membrane and probed.)

The target of experiment [2] is T2, hXkr8-T305C tagged with mGFP (human) (UniProt Q9H6D3).
T2 sequence: T1 sequence with C302T, T305C
The experiment can be described thus: cross-linking; cysteine-substituted hXkr8-mGFP and hBSG-HA co-expressed in HEK293T; crude membrane fraction not treated with oxidant; nonreducing SDS–PAGE, western blot for GFP and HA.

Substitutions are numbered along the chain they refer to. Results are given in words; binding and its absence hold for the method and conditions named. Binding seen in cells or lysates may run through a third protein. A result given as binding can be weak or reduced; the word gives no strength. Sequences can lack the tags named with a protein.

Take hBSG-P211C tagged with HA (human): the binding entry in experiment [1] is on record as “binds”. As to hBSG-A207C tagged with HA (human), the binding result in experiment [2] is “binds”.

For the origin of these results see PMC8500837, “The tertiary structure of the human Xkr8–Basigin complex that scrambles phospholipids at plasma membranes” (Nature Structural & Molecular Biology, 2021).
